From patent publication US8299040B2, “Methods for treating cancer targeting transglutaminase” (Board of Regents, The University of Texas System, priority 2006, dated 2012)
For at least one compound, name, drawing or mass did not settle the structure.

Tested on: MDA-Panc28 cells
Assay: Acidic vesicular organelles / autophagy by acridine orange FACS
Assay type: cell-based, human
Settings: rapamycin 20 nM or 100 nM
Description: To detect and quantify acidic vesicular organelles, cells were stained with acridine orange as described previously. The number of acridine orange-positive cells was determined by fluorescence-activated cell sorting (FACS) analysis. Cell morphology was examined using phase-contrast and fluorescence microscopy (Nikon, Melville, N.Y., USA) with the cells remaining in their culture flasks.
Exponentially growing untreated MDA-Panc28 cells were plated 24 h before transfection. Plated cells were transfected with double-stranded siRNA targeting TG2 mRNA and control (non-silencing) siRNA (all from Qiagen, Venlo, Netherlands) and/or the green fluorescent protein (GFP) and microtubule-associated protein 1 light chain 3 (LC3) fusion vector (GFP-LC3) using the Qiagen transfection reagent according to the manufacturer's protocol. Two siRNA sequences targeting TG2 were designed using siRNA-designing software (Qiagen). PKCδ siRNA was obtained from Santa Cruz Biotechnology (Santa Cruz, Calif., USA). Untransfected cells and non-silencing control siRNA-transfected cells were used as negative controls. After treatment, the cells were harvested for western blot analysis or FACS analysis to determine whether autophagy had occurred.

Compound: CO[C@H]1C[C@@H]2CC[C@@H](C)[C@@](O)(O2)C(=O)C(=O)N2CCCC[C@H]2C(=O)O[C@H]([C@H](C)C[C@@H]2CC[C@@H](O)[C@H](OC)C2)CC(=O)[C@H](C)/C=C(\C)[C@@H](O)[C@@H](OC)C(=O)[C@H](C)C[C@H](C)/C=C/C=C/C=C/1C [rapamycin]
- induction of autophagy: failed to induce autophagy
